# Where two headings read alike, the source gives them in different places. These are yes or no findings as the source states them, for the method shown. Binding seen in cells or lysates may run through a third protein. Some entries that bind do so weakly or less than the wild type. For some of these results: Sequences can lack the tags named with a protein.
# Sequences of proteins named here, by UniProt entry; tags and fusion partners are left off. A change or cut given only in a name is not applied to a line headed by its entry.
# UniProt P51532: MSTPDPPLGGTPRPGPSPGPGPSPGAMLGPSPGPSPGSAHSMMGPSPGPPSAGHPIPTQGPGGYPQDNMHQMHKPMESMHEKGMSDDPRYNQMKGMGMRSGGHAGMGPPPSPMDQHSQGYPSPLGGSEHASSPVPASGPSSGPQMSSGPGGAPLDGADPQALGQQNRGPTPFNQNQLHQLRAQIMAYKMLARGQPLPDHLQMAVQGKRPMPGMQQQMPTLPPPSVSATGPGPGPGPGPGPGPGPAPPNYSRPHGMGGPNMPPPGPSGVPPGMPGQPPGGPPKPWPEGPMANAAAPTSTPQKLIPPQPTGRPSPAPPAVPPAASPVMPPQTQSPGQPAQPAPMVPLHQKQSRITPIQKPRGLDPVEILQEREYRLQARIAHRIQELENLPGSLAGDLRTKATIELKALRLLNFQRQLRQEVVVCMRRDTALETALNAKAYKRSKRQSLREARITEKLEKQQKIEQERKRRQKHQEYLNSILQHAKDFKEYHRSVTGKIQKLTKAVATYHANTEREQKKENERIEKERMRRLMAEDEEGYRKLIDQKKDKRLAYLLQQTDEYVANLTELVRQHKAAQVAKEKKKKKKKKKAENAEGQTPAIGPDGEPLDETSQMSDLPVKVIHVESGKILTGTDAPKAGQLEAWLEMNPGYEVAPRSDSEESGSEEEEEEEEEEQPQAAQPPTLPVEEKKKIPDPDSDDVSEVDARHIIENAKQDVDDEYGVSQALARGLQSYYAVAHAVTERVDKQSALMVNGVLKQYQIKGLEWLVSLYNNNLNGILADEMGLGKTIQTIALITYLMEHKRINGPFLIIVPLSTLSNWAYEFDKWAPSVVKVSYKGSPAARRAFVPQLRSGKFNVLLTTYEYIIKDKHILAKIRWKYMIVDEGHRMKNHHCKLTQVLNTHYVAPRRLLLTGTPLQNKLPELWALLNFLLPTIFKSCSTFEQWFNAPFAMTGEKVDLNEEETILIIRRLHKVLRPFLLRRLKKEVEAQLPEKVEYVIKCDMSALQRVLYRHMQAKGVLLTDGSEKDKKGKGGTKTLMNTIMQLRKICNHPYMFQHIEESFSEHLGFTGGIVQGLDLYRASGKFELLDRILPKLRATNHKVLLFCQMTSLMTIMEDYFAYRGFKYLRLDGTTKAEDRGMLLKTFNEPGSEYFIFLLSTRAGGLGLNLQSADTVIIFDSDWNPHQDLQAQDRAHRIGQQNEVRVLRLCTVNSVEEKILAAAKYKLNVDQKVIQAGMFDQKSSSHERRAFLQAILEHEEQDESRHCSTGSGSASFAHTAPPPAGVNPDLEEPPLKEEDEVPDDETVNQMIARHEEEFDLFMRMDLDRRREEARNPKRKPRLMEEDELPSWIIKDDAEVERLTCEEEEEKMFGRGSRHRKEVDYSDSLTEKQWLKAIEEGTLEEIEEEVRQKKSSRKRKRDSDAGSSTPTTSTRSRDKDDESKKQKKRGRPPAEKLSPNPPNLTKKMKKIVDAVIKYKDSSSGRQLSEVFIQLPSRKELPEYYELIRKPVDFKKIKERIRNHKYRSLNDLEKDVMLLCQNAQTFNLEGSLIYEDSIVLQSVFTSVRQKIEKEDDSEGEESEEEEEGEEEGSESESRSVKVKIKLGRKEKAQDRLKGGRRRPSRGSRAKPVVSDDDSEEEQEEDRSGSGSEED
# UniProt O14497: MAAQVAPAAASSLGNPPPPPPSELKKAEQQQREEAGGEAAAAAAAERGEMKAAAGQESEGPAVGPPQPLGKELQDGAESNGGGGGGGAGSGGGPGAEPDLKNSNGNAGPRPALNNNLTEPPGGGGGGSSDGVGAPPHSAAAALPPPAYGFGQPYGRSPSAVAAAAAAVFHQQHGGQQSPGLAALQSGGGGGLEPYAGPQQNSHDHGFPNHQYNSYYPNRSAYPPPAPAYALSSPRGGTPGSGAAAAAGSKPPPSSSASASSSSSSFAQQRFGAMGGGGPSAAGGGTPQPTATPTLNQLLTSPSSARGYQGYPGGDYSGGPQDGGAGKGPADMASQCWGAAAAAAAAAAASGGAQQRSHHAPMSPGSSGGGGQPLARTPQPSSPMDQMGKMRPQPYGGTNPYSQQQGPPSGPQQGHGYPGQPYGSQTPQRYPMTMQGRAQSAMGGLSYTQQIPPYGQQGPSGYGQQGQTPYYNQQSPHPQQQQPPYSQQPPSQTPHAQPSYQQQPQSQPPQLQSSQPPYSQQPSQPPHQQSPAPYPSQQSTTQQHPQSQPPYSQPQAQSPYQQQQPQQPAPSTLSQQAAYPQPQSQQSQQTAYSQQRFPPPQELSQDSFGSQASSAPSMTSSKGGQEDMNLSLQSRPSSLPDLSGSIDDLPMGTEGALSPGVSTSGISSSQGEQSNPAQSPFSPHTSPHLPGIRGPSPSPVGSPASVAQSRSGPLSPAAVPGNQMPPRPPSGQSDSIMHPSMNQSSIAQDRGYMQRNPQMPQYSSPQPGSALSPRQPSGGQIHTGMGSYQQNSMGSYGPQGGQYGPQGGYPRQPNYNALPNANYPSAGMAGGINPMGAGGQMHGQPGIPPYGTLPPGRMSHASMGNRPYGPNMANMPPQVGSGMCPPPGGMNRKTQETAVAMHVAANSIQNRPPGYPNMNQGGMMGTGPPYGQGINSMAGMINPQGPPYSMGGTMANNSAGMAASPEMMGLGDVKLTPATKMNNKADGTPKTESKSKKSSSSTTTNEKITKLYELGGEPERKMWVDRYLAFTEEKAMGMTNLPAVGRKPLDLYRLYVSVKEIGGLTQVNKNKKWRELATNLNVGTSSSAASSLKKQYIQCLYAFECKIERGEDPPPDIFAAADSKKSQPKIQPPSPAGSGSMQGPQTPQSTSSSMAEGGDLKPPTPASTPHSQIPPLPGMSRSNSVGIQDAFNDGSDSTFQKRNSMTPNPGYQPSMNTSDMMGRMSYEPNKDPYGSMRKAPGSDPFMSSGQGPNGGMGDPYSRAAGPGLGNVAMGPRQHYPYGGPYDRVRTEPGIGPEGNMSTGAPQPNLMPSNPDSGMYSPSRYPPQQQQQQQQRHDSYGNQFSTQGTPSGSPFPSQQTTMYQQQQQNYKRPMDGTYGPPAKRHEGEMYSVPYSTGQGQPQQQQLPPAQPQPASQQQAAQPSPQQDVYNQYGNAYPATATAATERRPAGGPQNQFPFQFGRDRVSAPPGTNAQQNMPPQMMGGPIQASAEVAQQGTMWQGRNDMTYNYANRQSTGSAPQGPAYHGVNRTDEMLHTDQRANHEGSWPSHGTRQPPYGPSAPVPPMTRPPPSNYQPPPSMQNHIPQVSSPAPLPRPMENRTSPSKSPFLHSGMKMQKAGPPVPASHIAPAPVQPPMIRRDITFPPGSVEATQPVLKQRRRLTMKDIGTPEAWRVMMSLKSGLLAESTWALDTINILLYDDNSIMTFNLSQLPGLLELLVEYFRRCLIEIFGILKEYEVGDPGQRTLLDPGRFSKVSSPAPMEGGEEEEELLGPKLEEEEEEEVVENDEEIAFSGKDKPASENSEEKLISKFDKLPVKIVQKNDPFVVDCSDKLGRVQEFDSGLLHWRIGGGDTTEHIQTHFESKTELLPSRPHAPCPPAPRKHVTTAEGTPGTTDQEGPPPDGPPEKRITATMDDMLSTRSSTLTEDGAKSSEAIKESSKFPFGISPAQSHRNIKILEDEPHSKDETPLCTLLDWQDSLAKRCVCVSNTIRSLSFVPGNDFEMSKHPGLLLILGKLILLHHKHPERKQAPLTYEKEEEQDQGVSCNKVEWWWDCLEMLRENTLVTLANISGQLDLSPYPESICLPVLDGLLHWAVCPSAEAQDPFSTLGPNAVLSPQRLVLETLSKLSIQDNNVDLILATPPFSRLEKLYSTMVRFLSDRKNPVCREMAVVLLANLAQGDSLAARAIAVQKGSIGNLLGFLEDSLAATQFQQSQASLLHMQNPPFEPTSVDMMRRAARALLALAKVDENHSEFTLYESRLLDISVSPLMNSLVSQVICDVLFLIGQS
# Legend:
# [1] = target: Carbamoyl-phosphate synthetase 2, Aspartate transcarbamoylase, and Dihydroorotase (CAD), endogenous (human (endogenous in KLE and ES2)) (UniProt P27708); test: co-IP
# [2] = target: SMARCA4 (also known as BRG1), endogenous (human (endogenous in ES2)) (UniProt P51532); test: co-IP
# [3] = target: Carbamoyl-phosphate synthetase 2, Aspartate transcarbamoylase, and Dihydroorotase (CAD), endogenous (human (endogenous in KLE and ES2)) (UniProt P27708); test: co-IP; remark: listed apart in the source
# [4] = target: SMARCA4 (also known as BRG1), endogenous (human (endogenous in ES2)) (UniProt P51532); test: co-IP; remark: listed apart in the source
# [5] = target: ARID1A protein (BAF250a), endogenous (human (endogenous in KLE and ES2)) (UniProt O14497); test: co-IP
# [6] = target: ARID1A protein (BAF250a), endogenous (human (endogenous in KLE and ES2)) (UniProt O14497); test: co-IP; remark: listed apart in the source
# [7] = target: T1, GST-ATCase domain of CAD (1823-2225) (UniProt P27708); test: pull-down
# T1 sequence: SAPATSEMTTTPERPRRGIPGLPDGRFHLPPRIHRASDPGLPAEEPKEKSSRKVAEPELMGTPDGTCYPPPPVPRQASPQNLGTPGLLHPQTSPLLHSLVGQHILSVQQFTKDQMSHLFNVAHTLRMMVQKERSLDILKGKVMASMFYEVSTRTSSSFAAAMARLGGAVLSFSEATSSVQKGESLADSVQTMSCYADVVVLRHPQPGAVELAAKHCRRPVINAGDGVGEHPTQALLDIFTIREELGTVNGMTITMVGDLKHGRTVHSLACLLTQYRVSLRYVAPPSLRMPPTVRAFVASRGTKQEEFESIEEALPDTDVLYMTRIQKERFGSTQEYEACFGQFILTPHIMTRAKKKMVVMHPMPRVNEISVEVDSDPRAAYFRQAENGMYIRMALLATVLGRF
Substance,binding [7],binding [5],binding [6],other results
"ARID1A protein (BAF250a), endogenous (from UniProt O14497-1 1-2285)",,,,binding [1]: binds; binding [2]: binds; binding [3]: binds; binding [4]: binds
"Carbamoyl-phosphate synthetase 2, Aspartate transcarbamoylase, and Dihydroorotase (CAD), endogenous (from UniProt P27708 1-2225) (enzyme)",,binds,binds,
"SMARCA4 (also known as BRG1), endogenous (from UniProt P51532 1-1647)",,binds,binds,

# Continued, in another order:
binding [7],Substance,binding [5],binding [6],other results
binds,V5-tagged C-terminal ARID1A (1759-2285) (from UniProt O14497 1759-2285) (domain or fragment),,,
no binding,V5-tagged N-terminal ARID1A (1-1758) (from UniProt O14497 1-1758) (domain or fragment),,,

# Reference: doi:10.1101/2020.10.12.331975
